These are yes or no findings as the source states them, for the method shown. In cells and extracts the contact can be indirect. Some results given as binding are weak or reduced against the parent protein; the word gives no strength. For part of these data: Sequences can lack the tags named with a protein.

Protein sequences, listed by entry. Tags and fused reporters are not part of them.
UniProt P42866: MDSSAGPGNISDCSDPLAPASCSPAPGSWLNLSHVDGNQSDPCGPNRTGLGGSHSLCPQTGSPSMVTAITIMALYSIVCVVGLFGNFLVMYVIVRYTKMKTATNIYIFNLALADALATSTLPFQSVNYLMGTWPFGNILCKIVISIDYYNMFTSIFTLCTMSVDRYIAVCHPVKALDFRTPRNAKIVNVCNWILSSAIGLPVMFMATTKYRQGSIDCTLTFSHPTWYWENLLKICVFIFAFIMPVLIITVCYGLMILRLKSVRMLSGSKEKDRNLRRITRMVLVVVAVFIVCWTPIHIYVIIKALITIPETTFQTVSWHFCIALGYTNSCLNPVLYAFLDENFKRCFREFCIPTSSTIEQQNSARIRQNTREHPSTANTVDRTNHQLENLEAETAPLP
UniProt Q62463: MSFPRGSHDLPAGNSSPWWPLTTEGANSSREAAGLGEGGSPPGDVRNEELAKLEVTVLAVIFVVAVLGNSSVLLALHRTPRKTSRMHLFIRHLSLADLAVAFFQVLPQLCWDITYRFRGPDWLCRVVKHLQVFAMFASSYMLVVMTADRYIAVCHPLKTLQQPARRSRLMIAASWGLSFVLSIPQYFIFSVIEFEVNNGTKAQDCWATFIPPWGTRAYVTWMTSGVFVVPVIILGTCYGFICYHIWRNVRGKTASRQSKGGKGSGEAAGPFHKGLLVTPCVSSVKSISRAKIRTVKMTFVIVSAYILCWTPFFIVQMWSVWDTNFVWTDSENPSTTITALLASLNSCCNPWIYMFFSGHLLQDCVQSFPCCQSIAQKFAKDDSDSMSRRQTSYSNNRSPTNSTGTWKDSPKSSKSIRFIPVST
UniProt Q91YI4: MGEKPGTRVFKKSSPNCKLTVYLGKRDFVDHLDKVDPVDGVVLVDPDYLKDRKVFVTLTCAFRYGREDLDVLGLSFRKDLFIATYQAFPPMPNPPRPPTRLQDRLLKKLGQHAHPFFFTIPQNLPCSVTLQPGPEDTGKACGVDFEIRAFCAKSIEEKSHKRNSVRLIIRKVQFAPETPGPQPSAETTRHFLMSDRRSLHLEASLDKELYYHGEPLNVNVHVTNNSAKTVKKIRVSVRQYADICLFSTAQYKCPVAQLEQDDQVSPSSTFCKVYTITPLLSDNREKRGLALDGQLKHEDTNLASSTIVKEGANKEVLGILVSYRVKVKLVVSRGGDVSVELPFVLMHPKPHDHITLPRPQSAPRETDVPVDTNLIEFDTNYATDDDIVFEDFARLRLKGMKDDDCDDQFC

The target of test [1] is heteromeric μ-V1b receptor (V1b-LgBit plus μ-SmBit) (mouse) (UniProt Q9WU02+P42866). The test is described as follows: split reporter + FRET or BRET; NanoBit-NanoBRET in HEK cells co-transfected with receptor-LgBit, receptor-SmBit (reconstituted split Nluc as donor) and β-arrestin 2-Venus (acceptor); without agonist or with AVP and/or DAMGO for 5 min at ambient temperature; ratio of light at 530/480 nm; amounts of plasmid varied. Background: BRET reads energy transfer from a luciferase to a nearby fluorophore.

The target in test [2] is heteromeric μ-V1b receptor (V1b-SmBit plus μ-LgBit) (mouse) (UniProt Q9WU02+P42866). Described as above.
In test [3] the target is T1, V1b-Nluc (mouse) (UniProt Q9WU02).
T1 sequence: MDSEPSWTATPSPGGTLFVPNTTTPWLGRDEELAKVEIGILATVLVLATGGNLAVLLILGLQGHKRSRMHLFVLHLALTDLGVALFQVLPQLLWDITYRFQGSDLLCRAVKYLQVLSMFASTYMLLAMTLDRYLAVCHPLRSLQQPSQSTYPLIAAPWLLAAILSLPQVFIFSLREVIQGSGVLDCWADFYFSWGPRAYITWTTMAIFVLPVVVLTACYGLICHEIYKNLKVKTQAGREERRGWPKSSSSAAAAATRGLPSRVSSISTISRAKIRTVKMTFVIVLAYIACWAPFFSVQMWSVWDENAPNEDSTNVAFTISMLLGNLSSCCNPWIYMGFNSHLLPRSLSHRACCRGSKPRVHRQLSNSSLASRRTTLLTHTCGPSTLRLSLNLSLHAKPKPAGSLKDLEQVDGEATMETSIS
The test is described as follows: FRET or BRET; NanoBRET in HEK cells co-transfected with receptor-Nluc (donor) and β-arrestin 2-Venus (acceptor); without agonist or with AVP for 5 min at ambient temperature; assay buffer with 137 mM NaCl, 10 mM HEPES pH 7.4; ratio of light at 530/480 nm; amounts of receptor plasmid varied.

Test [4] deals with V1a-Nluc (mouse) (UniProt Q62463). The description is as above.
The target in test [5] is T2, V1b-Venus (mouse) (UniProt Q9WU02).
T2 sequence: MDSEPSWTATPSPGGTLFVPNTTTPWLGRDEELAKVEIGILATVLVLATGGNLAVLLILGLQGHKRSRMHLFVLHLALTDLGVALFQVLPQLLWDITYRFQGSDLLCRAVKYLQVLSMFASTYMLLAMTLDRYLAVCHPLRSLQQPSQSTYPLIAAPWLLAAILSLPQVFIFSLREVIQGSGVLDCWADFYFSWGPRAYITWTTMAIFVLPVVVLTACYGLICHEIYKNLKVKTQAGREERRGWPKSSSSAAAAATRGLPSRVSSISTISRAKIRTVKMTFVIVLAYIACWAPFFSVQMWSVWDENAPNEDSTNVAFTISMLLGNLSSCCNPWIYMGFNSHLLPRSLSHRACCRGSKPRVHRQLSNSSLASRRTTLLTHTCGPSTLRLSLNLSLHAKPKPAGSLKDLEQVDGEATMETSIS
Description: FRET or BRET; NanoBRET in HEK cells co-transfected with receptor-Nluc (donor) and receptor- or channel-Venus (acceptor) at different ratios (1:0.08–39), without agonist; BRETeff = BRET/BRETmax with μ-Venus-Nluc as BRETmax.

In test [6] the target is V1a receptor fused to LgBit or SmBit (mouse) (UniProt Q62463). Description: split reporter; NanoBit luminescence of a membrane fraction prepared from cells expressing the V1a receptor fused to split Nluc, after addition of the substrate.
The target is the same in test [7]. The test is described as follows: split reporter; NanoBit luminescence of HEK cells co-expressing receptor-LgBit and receptor-SmBit, without β-arrestin 2-Venus; luminescence averaged over five min.
Test [8] concerns the target μ-opioid receptor fused to LgBit or SmBit (mouse) (UniProt P42866). The description is as above.
Test [9] concerns the target V1b receptor fused to LgBit or SmBit (mouse) (UniProt Q9WU02). Described as above.

In the case of “β-arrestin 2-Venus (from UniProt Q91YI4 1-410)”, the binding entry in test [1], in test [2], in test [3] and in [4] was “binds” each time.
For the molecule “μ-Nluc (from UniProt P42866 1-398) (receptor)”, the binding result in test [5] is “binds”.
For “V1a receptor fused to LgBit or SmBit (from UniProt Q62463 1-423)”, the binding entry in test [6] and in test [7] was “binds” throughout.
With “μ-opioid receptor fused to LgBit or SmBit (from UniProt P42866 1-398)”, the binding entry in test [8] is recorded as “binds”.

B1: V1b receptor fused to LgBit or SmBit (receptor, UniProt Q9WU02 1-421)
chain: MDSEPSWTATPSPGGTLFVPNTTTPWLGRDEELAKVEIGILATVLVLATGGNLAVLLILGLQGHKRSRMHLFVLHLALTDLGVALFQVLPQLLWDITYRFQGSDLLCRAVKYLQVLSMFASTYMLLAMTLDRYLAVCHPLRSLQQPSQSTYPLIAAPWLLAAILSLPQVFIFSLREVIQGSGVLDCWADFYFSWGPRAYITWTTMAIFVLPVVVLTACYGLICHEIYKNLKVKTQAGREERRGWPKSSSSAAAAATRGLPSRVSSISTISRAKIRTVKMTFVIVLAYIACWAPFFSVQMWSVWDENAPNEDSTNVAFTISMLLGNLSSCCNPWIYMGFNSHLLPRSLSHRACCRGSKPRVHRQLSNSSLASRRTTLLTHTCGPSTLRLSLNLSLHAKPKPAGSLKDLEQVDGEATMETSIS
In the case of B1, the binding result in test [9] was “binds”.
